This passage reports binding results from patent US20120308570A1, “METHODS FOR TREATING DISEASES” (priority 2009, published 2012).

The target of the experiment is T1, full-length iNOS protein (endogenous, from LPS/IFNγ-treated mouse bone marrow-derived macrophages) (mouse) (UniProt P29477).
T1 sequence: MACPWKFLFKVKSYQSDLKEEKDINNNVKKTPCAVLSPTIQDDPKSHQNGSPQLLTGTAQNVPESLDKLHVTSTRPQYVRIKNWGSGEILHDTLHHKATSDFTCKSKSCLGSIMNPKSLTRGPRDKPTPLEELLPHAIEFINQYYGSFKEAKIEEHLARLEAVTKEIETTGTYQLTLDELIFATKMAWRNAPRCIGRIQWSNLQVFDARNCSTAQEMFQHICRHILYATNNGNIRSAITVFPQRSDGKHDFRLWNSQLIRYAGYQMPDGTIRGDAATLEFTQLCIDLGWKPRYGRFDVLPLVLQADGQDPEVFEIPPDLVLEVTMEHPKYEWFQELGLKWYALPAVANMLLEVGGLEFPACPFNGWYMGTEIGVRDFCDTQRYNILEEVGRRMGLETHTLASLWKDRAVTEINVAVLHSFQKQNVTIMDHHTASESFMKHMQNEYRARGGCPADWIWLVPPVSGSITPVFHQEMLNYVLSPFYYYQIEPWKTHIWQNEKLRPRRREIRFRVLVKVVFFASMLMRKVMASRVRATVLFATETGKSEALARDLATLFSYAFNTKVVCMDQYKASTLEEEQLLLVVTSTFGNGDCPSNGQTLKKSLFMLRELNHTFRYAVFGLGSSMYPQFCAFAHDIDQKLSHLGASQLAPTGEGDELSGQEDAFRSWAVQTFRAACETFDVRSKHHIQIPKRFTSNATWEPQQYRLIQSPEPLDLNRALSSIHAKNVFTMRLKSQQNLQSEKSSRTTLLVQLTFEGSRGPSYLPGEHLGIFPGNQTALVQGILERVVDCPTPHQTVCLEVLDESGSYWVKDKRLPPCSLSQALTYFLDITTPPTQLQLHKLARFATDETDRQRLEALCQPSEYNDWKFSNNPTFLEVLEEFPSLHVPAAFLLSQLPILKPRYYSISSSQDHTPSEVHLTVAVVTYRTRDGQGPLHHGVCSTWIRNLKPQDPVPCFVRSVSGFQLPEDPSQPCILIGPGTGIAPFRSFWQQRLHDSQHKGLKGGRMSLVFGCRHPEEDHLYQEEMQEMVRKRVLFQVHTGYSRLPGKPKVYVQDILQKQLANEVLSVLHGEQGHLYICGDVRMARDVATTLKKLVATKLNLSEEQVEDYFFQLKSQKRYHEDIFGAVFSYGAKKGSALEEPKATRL
The experiment is described as follows: co-immunoprecipitation: 293T lysate with the Flag-tagged protein mixed with iNOS-expressing BMDM lysate, anti-Flag IP, Western blot with anti-iNOS. (Immunoblotting shows a protein as a band on a membrane.)

These are yes or no findings as the source states them, for the method shown. Binding seen in cells or lysates may run through a third protein. Some entries that bind do so weakly or less than the wild type.

B1: SSB-2ΔSB (protein, not shown: small tags and cut ends)
chain: STPTSQALYSDFSPPEGLEELLSAPPPDLVAQRHHGWNPKDCSENIDVKEGGLCFERRPVAQSTDGVRGKRGYSRGLHAWEISWPLEQRGTHAVVGVATALAPLQADHYAALLGSNSESWGWDIGRGKLYHQSKGLEAPQYPAGPQGEQLVVPERLLVVLDMEEGTLGYSIGGTYLGPAFRGLKGRTLYPSVSAVWGQCQVRIRYMGERRVEE
modifications: N- or C-terminal Flag tag not written (letters not given).
With B1, the binding result is “binds”.
